Experimental findings from EP4834881A1, “QUINOLONE COMPOUNDS AND USE THEREOF” (dated 2026) are described below.

Amino acid sequences for entries named in this document (tags omitted).
UniProt Q96LB1, whole entry: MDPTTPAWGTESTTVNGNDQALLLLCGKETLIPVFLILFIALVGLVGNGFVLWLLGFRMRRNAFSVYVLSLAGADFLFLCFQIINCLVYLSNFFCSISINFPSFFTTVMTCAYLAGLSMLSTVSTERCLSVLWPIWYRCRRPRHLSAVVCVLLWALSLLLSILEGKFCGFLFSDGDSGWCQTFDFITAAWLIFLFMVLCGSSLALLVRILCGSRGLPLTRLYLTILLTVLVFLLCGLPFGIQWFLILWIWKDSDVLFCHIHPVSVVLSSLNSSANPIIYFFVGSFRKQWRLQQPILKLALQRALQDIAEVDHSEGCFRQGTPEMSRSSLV

A word on the IC50: it is the point on the concentration scale where inhibition reaches its midpoint. Lower therefore signals higher potency.

Structures were worked out from names or drawings and are uncertain. Marks after values point to notes of the source that are not given here.

For one assay, the target named is human MRGPRX2 (Homo sapiens, UniProt Q96LB1). Description: In vitro target binding assay: BRET between MRGPRX2-Nluc and Venus-β-arrestin1 in transfected HEK-293T cells, antagonist mode against agonist R-ZINC-3573 (EC80). The following applies: antagonism of agonist R-ZINC-3573 at EC80, net BRET. From the text:
Bioluminescence Resonance Energy Transfer (BRET) is an important biophysical technique for monitoring molecular interactions, and has been widely used to study protein-protein interactions in living cells. This technique requires the relevant proteins to be linked to an energy donor (such as luciferase) and an acceptor (such as a fluorescent protein). When a relevant drug molecule interacts with the protein, the protein structure alters, causing a change in the distance between the energy donor and the energy acceptor. The luminescence energy induced by the chemical reaction is transferred to the corresponding acceptor, resulting in increased acceptor emission, and generating a BRET signal. In this work, a DNA-synthesized target human MRGPRX2 and a donor luciferase Nluc (NanoLuc®Promega) (Supplier: Beijing Tsingke, Lot No.: SZ0171228-1), as well as an acceptor fluorescent protein Venus and the relevant test protein, namely human β-arrestin1 (ARRB1) (Supplier: Guangzhou Dahong Biotechnology, Lot No. HY22694-4396), were utilized, and were inserted into the eukaryotic expression vector plasmid pcDNA3.1(+) (Supplier: Qiyun Bio, Lot No.: QY2310) as fusion genes via a Linker sequence (GGSG). The cell line selected for the experiment was human embryonic kidney cells HEK-293T. The human embryonic kidney cell line HEK-293T was routinely cultured in 10 cm cell culture dishes using complete culture medium consisting of high-glucose DMEM medium supplemented with 10% (V/V) fetal bovine serum. Cells were seeded at 2×10^6 cells/10 cm dish on the first day of culture, and passaged every 72 h with the same number of cells. One day prior to transfection, cells were resuspended, counted, and seeded at a density of 2×10^6 cells/6 cm dish or 4×10^6 cells/10 cm dish. Transfection was carried out 16-24 h after seeding. Plasmids constructed with the fusion protein gene were transfected into the expression cell line, and the transfected cells were cultured under appropriate conditions for a period of time to allow sufficient expression of the fusion proteins. Transfection was performed by encapsulating plasmid DNA with PEI reagent, and the encapsulation process should to be carried out in Opti-MEM medium. The ratio of plasmid, PEI (Supplier: Yeasen Biotechnology, Lot No.: WP5430010), and Opti-MEM (Supplier: Gibco, Lot No.: 2883564) was 1:4:14 (W: W: V). The encapsulated plasmid was added to an appropriate amount of complete culture medium, amd gently mixed, which was then used to replace the existing culture medium of the previously plated cells. Cells were harvested 24 h after transfection. Subsequently, cells were resuspended using HBSS (Source: Biosharp, Lot No.: 24179687) and counted with a cell counter. The cells were diluted to a density of (3~5) ×10^5 cells/mL, and then seeded into a flat-bottom white 96-well microplate at 100 µ L/well, resulting in (3~5) ×10^4 cells per well. In each well, 10 µ L of antagonist compounds diluted with HBSS a different concentrations were added firstly, then the agonist compound at a specific concentration (EC80) was added. After reacting for 2 min, the substrate Furimazine (Supplier: TargetMol, Lot No.: 362434) at a final concentration of 10 µM was added. After reacting for another 2 min, the 96-well plate was placed in a PHERAstar FSX microplate reader (Supplier: BMG Labtech) to simultaneously measure the readings at wavelengths of 440 nm and 530 nm. Based on the fluorescence readings at 440 nm and 530 nm, the Ratio and net BRET were calculated. Ratio = Em530 nm / Em440 nm, and net BRET = Ratio co-transfection - Ratio single-transfection. The calculated net BRET values were inputted into GraphPad Prism 9, and curve fitting via nonlinear regression (four-parameter equation) and IC50 calculation were performed.

Assay [1] has as its system BALB/c mice. Description: Urticaria model: anti-dinitrophenyl antibody sensitization and dinitrofluorobenzene challenge; number of wheals, serum IgE and histamine (ELISA). The following applies: once daily, 6 days, mean ± SEM; for Number of Wheals: end of experiment; for Histamine Level / IgE Level: serum. As to the method:
Experimental animals: BALB/c mice, from Hangzhou Ziyuan Laboratory Animal Technology Co., Ltd
After random grouping, the back of the mice was shaved in advance, with a shaving area of about 2 cm × 2 cm. Except for the normal control group, mice in the remaining groups were sensitized via tail vein injection of an anti-dinitrophenyl monoclonal antibody (Supplier: Sigma-Aldrich, Lot No.: 0000241402) (0.2 ng/mL) at a dose of 0.5 mL per mouse. After 24 h, the mice in each sensitization modeling group were challenged by topically applying 50 µL of 0.15% dinitrofluorobenzene (Supplier: Shanghai Macklin, Lot No.: C14969320) to the dorsal side of both ears. The normal control group was injected and topically applied with normal saline under the same conditions.
The administration regimen for the mouse urticaria model was as follows (the normal control group and the model control group were administered with vehicle alone under the same conditions) (once daily):
Mouse IgE ELISA detection kit: purchased from Shanghai Enzyme-linked Biotechnology Co., Ltd., Lot No.: ml1037602.
Mouse histamine ELISA detection kit: purchased from Shanghai Enzyme-linked Biotechnology Co., Ltd., Lot No.: ml1001877.
Microplate reader, manufacturer BioTek, model: Epoch.
On the technique in general: ELISA stands for enzyme-linked immunosorbent assay.

Assay [2] has as its system BALB/c mice. In words: Psoriasis model: imiquimod cream on mouse back, PASI score. The note with it: 4mg/g Topical application, once daily, mean ± SEM. As to the method: (§1) Experimental animals: BALB/c mice, from Guangdong Vital River Laboratory Animal Technology Co., Ltd.
The clinical severity of psoriasis was assessed using the Psoriasis Area and Severity Index (PASI) score. The PASI scoring criteria for mice are as follows:
The hair on the back of the mice was shaved, and the application area was marked with a marker pen. Imiquimod cream (Supplier: Sichuan Mingxin Pharmaceutical, Lot No.: 24054002) was applied to the back of the mice for several consecutive days to establish a mouse model of psoriasis. Before daily application, the residual cream was removed using pure water.
Administration was initiated on the day of grouping, which was designated as D1, and was performed once daily for 8 consecutive days. The normal control group and the model control group were administered with vehicle alone under the same conditions. Mice were scored according to the PASI (Psoriasis area and severity index). The administration regimen for the mouse psoriasis model was as follows: […]

Assay [3] deals with BALB/c mice. Description: Allergic rhinitis model: OVA sensitization and nasal challenge, number of sneezes. The note with it: 5mg/kg p.o. once daily, within 10 min after the nasal challenge. As to the method: as §1
Modeling was initiated on the day of grouping, which was designated as M1. Except for the normal group, mice in all modeling groups were intraperitoneally injected with a sensitization solution of (250 µg OVA (Ovalbumin) (Supplier: Shanghai Macklin, Lot No.: C16255388) mixed with 5 mg aluminum hydroxide/mL) per mouse, while the normal control group was given an equal volume of sterile PBS solution. The injection cycle was M1, M7, and M14. Starting from M21, challenge was carried out by nasal instillation once daily for 7 consecutive days. The challenge solution was a 50 mg/mL OVA solution, and a volume of 10 µL was instilled into each nostril per time. The normal control group was not subjected to nasal instillation.
Administration was initiated on the day of the challenge by nasal instillation, which was designated as D1, and was performed once daily for 7 consecutive days. The normal control group and the model control group were administered with vehicle alone under the same conditions:
The number of sneezes in each group was recorded within 10 min after the nasal challenge every day during the administration period.

For assay [4], the system named is BALB/c mice. Description: Asthma model: IgE assay (ELISA) in peripheral blood, alveolar lavage fluid and lung tissue. The following applies: 5mg/kg PO, 7 days, mean ± SEM. Here is the method:
as §1
(§2) Modeling was initiaed on the day of grouping, which was designated as M1. Except for the normal group, mice in all modeling groups were intraperitoneally injected with a sensitization solution of (500 µg OVA (Ovalbumin) (Supplier: Shanghai Macklin, Lot No.: C16255388) mixed with 5 mg aluminum hydroxide/mL) per mouse, while the normal control group was given an equal volume of sterile PBS solution. The injection cycle was M1, M7, and M14. Starting from M21, challenge was carried out by aerosolization once daily for 7 consecutive days. The challenge solution was a 20 mg/mL OVA (Ovalbumin) solution, and each aerosolization challenge lasted for 30 min. The normal control group was not subjected to aerosolization.
(§3) Administration was initiated on day M21, which was designated as D1, and was performed once daily for 7 consecutive days. The normal control group and the model control group were administered with vehicle alone under the same conditions. The administration regimen for the mouse asthma model was as follows:
Prior to necropsy, blood was collected from the eyeball. The collected mouse blood was then centrifuged at 1800 r/min at 4 °C for 15 min, and the supernatant serum was aliquoted and stored at -80 °C for testing. At the same time, alveolar lavage fluid and lung tissues were collected. The IgE levels in the above three samples was detected using an ELISA method (Supplier: Shanghai Enzyme-linked Biotechnology Co., Ltd., Lot No.: ml1037602). […] The results of the IgE levels in peripheral blood, lavage fluid, and lung tissue of each group are shown in Table 9, and the data are presented as mean ± standard error of the mean (SEM).

Assay [5] relates to BALB/c mice. Description: Asthma model: OVA sensitization and aerosol challenge, bronchoalveolar lavage fluid (BALF) cell differential count. The following applies: 5mg/kg PO, 7 days, mean ± SEM. Here is the method:
as §1, §2, §3
The lungs were gently lavaged twice with normal saline to collect BALF. The recovered BALF was stored at 4 °C, and the cell differential count was detected using an automated hematology analyzer (Manufacturer: SYSMEX, Model: XN-1000). During the experiment, the asthma model mice developed typical symptoms, including shortness of breath, and ear and nose scratching, etc. […] The results of the bronchoalveolar lavage fluid cell differential count in each group are shown in Table 8, and the data are presented as mean ± standard error of the mean (SEM).

In the case of `O=C(O)c1cn(C2CC2)c2cc(-c3ccc(S(=O)(=O)NCCCC(F)(F)F)cc3)c(F)cc2c1=O`, the IC50 at human MRGPRX2 fell in the range of 1 to 10 µM. The Number of Wheals is 11.4 · in the assay on BALB/c mice [1] (4mg/kg Topical application) and 10 · in the assay with BALB/c mice [1] (25mg/kg Oral). The “Histamine Level” value is 7.4 ± 1.0 ng/mL in the assay with BALB/c mice [1] (4mg/kg Topical application) and 5.8 ± 1.0 ng/mL with BALB/c mice [1] (25mg/kg Oral). For the same compound, the “IgE Level” value with BALB/c mice [1] (4mg/kg Topical application) was found to be 15.2 ± 2.0 µg/mL; in the assay with BALB/c mice [1] (25mg/kg Oral), 11.5 ± 2.0 µg/mL. The PASI score in the assay with BALB/c mice [2] (D1) was 0; in the assay with BALB/c mice [2] (D2), 0.6±0.3; in the assay on BALB/c mice [2] (D3), 1.7±0.3; in the assay with BALB/c mice [2] (D4), 3.1±0.3; in the assay on BALB/c mice [2] (D5), 3.8±0.3; with BALB/c mice [2] (D6), 4.6 ·. For the same compound, the PASI score was 5.5 · with BALB/c mice [2] (D7) and 6.6 · in the assay on BALB/c mice [2] (D8). The number of sneezes in the assay with BALB/c mice [3] (D1) is recorded as 2.8 number of sneezes/mouse; in the assay with BALB/c mice [3] (D2) it was 3.1 number of sneezes/mouse; in the assay with BALB/c mice [3] (D3), 10.2 number of sneezes/mouse; in the assay on BALB/c mice [3] (D4) it was 14.9 number of sneezes/mouse; with BALB/c mice [3] (D5) it was 10.7 number of sneezes/mouse; with BALB/c mice [3] (D6), 16.1 number of sneezes/mouse. Also, the number of sneezes in the assay on BALB/c mice [3] (D7) is recorded as 13.4 number of sneezes/mouse.
For `O=C(O)c1cn(C2CC2)c2c(F)c(-c3ccc(S(=O)(=O)N4CCOCC4)cc3)c(F)cc2c1=O`, the “Alveolar Lavage Fluid IgE Concentration” value with BALB/c mice [4] (alveolar lavage fluid) stood at 14.8 ± 3.5 ng/mL. In addition, in the assay with BALB/c mice [4] (lung tissue), the “Lung Tissue IgE Concentration” value came out at 48.9 ± 4.6 ng/mL. In addition, in the assay with BALB/c mice [4] (serum), the “Peripheral Blood IgE Concentration” value was found to be 12.1 ± 3.2 ng/mL. For the same compound, in the assay on BALB/c mice [5], the “Eosinophil Count” value is listed as 2.4±0.6* 10^9/L, the “Leukocyte Count WBC” value is 3.0 ±0.8* 10^9/L, the “Lymphocyte Count” value is 0.2±0.04* 10^9/L and the “Monocyte Count” value was 0.1±0.04* 10^9/L. Besides, the “Neutrophil Count” value with BALB/c mice [5] is 0.2 ±0.05* 10^9/L.
